Test results published in PMC11948044.
Results are given in words; binding and its absence hold for the method and conditions named. In cells and extracts the contact can be indirect. Some results given as binding are weak or reduced against the parent protein; the word gives no strength.

The chains behind the UniProt entries cited, without tags or fusion partners.
UniProt P31749: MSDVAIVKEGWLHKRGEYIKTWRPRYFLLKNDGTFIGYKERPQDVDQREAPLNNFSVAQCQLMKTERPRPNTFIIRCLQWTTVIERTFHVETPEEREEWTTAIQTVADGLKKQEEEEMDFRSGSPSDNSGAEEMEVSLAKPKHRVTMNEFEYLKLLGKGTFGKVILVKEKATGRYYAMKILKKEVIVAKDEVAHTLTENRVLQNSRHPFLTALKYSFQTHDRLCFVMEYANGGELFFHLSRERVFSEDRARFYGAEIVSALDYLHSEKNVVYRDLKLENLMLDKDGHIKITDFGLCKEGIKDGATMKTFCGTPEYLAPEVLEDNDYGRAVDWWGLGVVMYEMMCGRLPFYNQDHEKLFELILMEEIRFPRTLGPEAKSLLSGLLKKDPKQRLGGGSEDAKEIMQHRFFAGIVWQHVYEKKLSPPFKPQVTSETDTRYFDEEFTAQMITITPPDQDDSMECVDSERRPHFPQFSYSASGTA

B1: aldolase B (protein, UniProt P05062 1-364)
chain: MAHRFPALTQEQKKELSEIAQSIVANGKGILAADESVGTMGNRLQRIKVENTEENRRQFREILFSVDSSINQSIGGVILFHETLYQKDSQGKLFRNILKEKGIVVGIKLDQGGAPLAGTNKETTIQGLDGLSERCAQYKKDGVDFGKWRAVLRIADQCPSSLAIQENANALARYASICQQNGLVPIVEPEVIPDGDHDLEHCQYVTEKVLAAVYKALNDHHVYLEGTLLKPNMVTAGHACTKKYTPEQVAMATVTALHRTVPAAVPGICFLSGGMSEEDATLNLNAINLCPLPKPWKLSFSYGRALQASALAAWGGKAANKEATQEAFMKRAMANCQAAKGQYVHTGSSGAASTQSLFTACYTY
B2: farnesyl-diphosphate farnesyltransferase 1 (protein, UniProt P37268 1-417)
chain: MEFVKCLGHPEEFYNLVRFRIGGKRKVMPKMDQDSLSSSLKTCYKYLNQTSRSFAAVIQALDGEMRNAVCIFYLVLRALDTLEDDMTISVEKKVPLLHNFHSFLYQPDWRFMESKEKDRQVLEDFPTISLEFRNLAEKYQTVIADICRRMGIGMAEFLDKHVTSEQEWDKYCHYVAGLVGIGLSRLFSASEFEDPLVGEDTERANSMGLFLQKTNIIRDYLEDQQGGREFWPQEVWSRYVKKLGDFAKPENIDLAVQCLNELITNALHHIPDVITYLSRLRNQSVFNFCAIPQVMAIATLAACYNNQQVFKGAVKIRKGQAVTLMMDATNMPAVKAIIYQYMEEIYHRIPDSDPSSSKTRQIISTIRTQNLPNCQLISRSHYSPIYLSFVMLLAALSWQYLTTLSQVTEDYVQTGEH

Target: AKT serine/threonine kinase 1 (human (endogenous in Huh7)) (UniProt P31749)
Assay: co-IP; cell lysate (500 uL) pre-cleared, incubated overnight at 4 °C with protein A and G agarose beads and 5 ug indicated antibody; beads washed 3 times; western blot; Huh7 / HCC cells

binding	Binder
binds	B1
no binding	B2
